# Test results as given in PubChem BioAssay AID1445 (SRMLSC, 2008).
# Sequences of proteins named here, by UniProt entry; tags and fusion partners are left off. A change or cut given only in a name is not applied to a line headed by its entry.
# UniProt O96935: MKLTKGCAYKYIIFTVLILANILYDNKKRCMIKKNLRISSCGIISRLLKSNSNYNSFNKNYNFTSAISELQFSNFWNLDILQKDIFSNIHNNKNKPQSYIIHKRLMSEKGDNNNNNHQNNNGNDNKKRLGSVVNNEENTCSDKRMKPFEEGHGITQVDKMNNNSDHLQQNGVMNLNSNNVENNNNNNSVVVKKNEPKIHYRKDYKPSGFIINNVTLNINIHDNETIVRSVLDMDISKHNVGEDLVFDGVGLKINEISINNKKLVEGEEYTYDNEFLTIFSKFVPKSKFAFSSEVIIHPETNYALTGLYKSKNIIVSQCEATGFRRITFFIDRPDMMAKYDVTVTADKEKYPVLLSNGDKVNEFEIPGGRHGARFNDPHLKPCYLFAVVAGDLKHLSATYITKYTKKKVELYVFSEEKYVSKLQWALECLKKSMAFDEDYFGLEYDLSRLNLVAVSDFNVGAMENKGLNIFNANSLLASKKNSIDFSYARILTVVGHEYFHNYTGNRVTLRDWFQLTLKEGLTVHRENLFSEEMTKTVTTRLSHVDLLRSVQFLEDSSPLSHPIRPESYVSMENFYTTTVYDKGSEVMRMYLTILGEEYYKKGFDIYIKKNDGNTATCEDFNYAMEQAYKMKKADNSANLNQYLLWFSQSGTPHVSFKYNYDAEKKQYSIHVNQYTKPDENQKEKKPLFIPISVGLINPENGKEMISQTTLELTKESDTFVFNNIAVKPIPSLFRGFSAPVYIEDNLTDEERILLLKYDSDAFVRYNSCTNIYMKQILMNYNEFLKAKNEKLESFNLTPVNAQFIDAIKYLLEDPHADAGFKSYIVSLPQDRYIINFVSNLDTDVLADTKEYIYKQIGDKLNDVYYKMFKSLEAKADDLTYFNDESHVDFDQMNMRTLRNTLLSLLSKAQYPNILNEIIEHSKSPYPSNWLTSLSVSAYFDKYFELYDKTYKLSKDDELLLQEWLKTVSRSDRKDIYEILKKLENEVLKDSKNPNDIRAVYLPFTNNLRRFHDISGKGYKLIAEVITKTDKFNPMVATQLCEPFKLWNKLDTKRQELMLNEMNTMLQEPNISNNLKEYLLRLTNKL
# Hit rate of the full screen: of about 220,000 compounds, about 910 (0.41%) were called active. The inconclusive results got no clear call from the source; some entries with a clear call stand among them for comparison.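 Rule for the calls: active = primary inhibition above the hit cutoff, then over 50% inhibition at one or more dose response concentrations (cut at about 23% in these data, passing the limit was not always enough); inconclusive = conflicting primary data, or primary hits not chosen for dose response; inactive = low primary inhibition, or under 50% at every dose.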
# Biological target: Aminopeptidase N (Plasmodium falciparum (isolate 3D7)) (UniProt O96935)
# Test: P. falciparum M1AAP inhibitors, biochemical, fluorogenic H-Leu-NHMec substrate, 1536-well (AID 1445);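 note: plate controls were DMSO full reaction for no effect and no enzyme background for full effect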
# Details: recombinant M1AAP, H-Leu-NHMec fluorogenic kinetic assay
# [1] = at 30 µM, active compounds read high unless noted
smiles,measurement,setting,value
O=C(Nn1c(SCc2ccccc2F)nc2ccsc2c1=O)c1ccccc1,inhibition,[1],inconclusive: 26.9%
O=C(O)COc1ccccc1/C=N/NC(=O)CSc1nc2ccccc2n1Cc1ccccc1,inhibition,[1],inconclusive: 27%
Cc1cccc(N2NC(=O)/C(=C/c3ccc(-c4ccc(Cl)c(C(=O)O)c4)o3)C2=O)c1,inhibition,[1],inconclusive: 25.3%
Cc1ccc(S(=O)(=O)Oc2ccccc2/C=C2\SC(=O)NC2=O)cc1,inhibition,[1],inconclusive: 28%
CCN(CC(=O)NC1CCS(=O)(=O)C1)Cc1nc2c(Br)cc(Br)cc2c(=O)[nH]1 (stereo unspecified),inhibition,[1],inconclusive: 26.1%
Cc1ccc(C(=O)N2CCCC(c3ccc(Cl)cc3)=N2)cc1,inhibition,[1],inactive: -2.39%
CCOc1ccc(N(CC(=O)Nc2ccccc2)S(C)(=O)=O)cc1,inhibition,[1],inconclusive: 25.1%
O=C(Nn1c(C2CC2)nc2ccccc2c1=O)c1ccco1,inhibition,[1],active: 81.6%
Cn1c2ccccc2c(=O)c2c(=O)n(C3CCCCC3)c(-c3ccco3)nc21,inhibition,[1],inconclusive: 27.8%
Cc1ccc(S(=O)(=O)Nc2c(C)n(C)n(-c3ccccc3)c2=O)cc1C(=O)NCc1ccccn1,inhibition,"at 30 µM, active compounds read high",active: 28.8%
same,inhibition,at 100 µM (top of the series),inactive: 42.4%
CCCCCCC(=O)N(O)C1CC(=O)N(Cc2ccccc2)C1=O (stereo unspecified),inhibition,[1],active: 37.9%
Cc1ncsc1C(=O)Nc1nc2c(s1)CC(C)CC2 (stereo unspecified),inhibition,[1],inconclusive: 11.7%
CCn1c(CC(=O)Nc2cccc(Cl)c2Cl)nnc1SCCOc1ccc(OC)cc1,inhibition,[1],inactive: 13.4%
COCCCn1c(=NC(=O)c2ccncc2)c(C#N)cc2c(=O)n3cccc(C)c3nc21,inhibition,[1],inconclusive: 27.9%
O=c1c(-c2nc3ccccc3s2)cccn1Cc1ccccc1,inhibition,[1],active: 25.6%
C[N+]1(CCOc2ccc([N+](=O)[O-])cc2)CCOCC1,inhibition,[1],inconclusive: 39.8%
Cc1cc(N2CCN(c3ccccn3)CC2)n2c(nc3ccccc32)c1C#N,inhibition,[1],inactive: -0.82%
Cc1ccc(-n2c(SCC(=O)N/N=C/c3ccccc3OCC(=O)O)nc3ccccc3c2=O)cc1,inhibition,[1],inconclusive: 23.4%
Cc1cccc(NC(=O)N2CCC(NC(=O)c3ccccc3C)CC2)c1,inhibition,[1],inconclusive: 27.1%
CCOC(=O)N1CCc2c(sc(NC(=O)c3ccc(S(=O)(=O)N4CCCC4)cc3)c2C#N)C1,inhibition,[1],inconclusive: 26.4%
CS(=O)(=O)N(CC(=O)Nc1ccccc1C(=O)N1CCOCC1)c1ccc2c(c1)OCO2,inhibition,[1],active: 24.9%
Cc1ccc(NC(=O)c2cc(C(C)(C)C)nn2Cc2ccccc2)cc1,inhibition,[1],inactive: 5.05%
NS(=O)(=O)c1ccc(CCNC(=O)c2ccc(S(=O)(=O)N3CCCCC3)cc2)cc1,inhibition,[1],inactive: 15.2%
CCOc1ccc(NC(=O)c2ccc3c(SCC(=O)O)c4c(nc3c2)CCCC4)cc1,inhibition,[1],inconclusive: 23.6%
CC(C)(C)NC(=O)Cn1c(-c2nonc2N)nc2ccccc21,inhibition,[1],inactive: 8.2%
Cc1ccc2c(c1)-c1c(cnn1CC(=O)NC(C)CCc1ccco1)CO2 (stereo unspecified),inhibition,[1],active: 25.2%
COc1ccccc1CNC(=O)CN1CCC(NC(=O)c2ccccc2F)CC1,inhibition,[1],inactive: 8.21%
O=C(NCc1ccc2c(c1)OCO2)C1CCCN(S(=O)(=O)c2cccc3nonc23)C1 (stereo unspecified),inhibition,[1],active: 27.8%
Nc1ccc2oc3ccc(N)cc3c(=O)c2c1,inhibition,[1],inconclusive: 24.4%
Cc1csc(NC(=O)CSc2nc(C(C)C)nc3c2c(=O)n(C)c(=O)n3C)n1,inhibition,[1],inactive: -1.73%
CC(C)C(C)(C#N)NC(=O)CSc1nc2scc(-c3ccco3)c2c(=O)n1-c1ccccc1 (stereo unspecified),inhibition,[1],active: 24.4%
Cc1ccc(C(=O)N/C(=C\c2ccc(-c3ccc(Br)cc3)o2)C(=O)NCCCN(C)C)cc1,inhibition,[1],inconclusive: 23.5%
CCOC(=O)c1cc(C)sc1NC(=S)Nc1ccccc1,inhibition,[1],inconclusive: 25.2%
CCOC(=O)Cc1csc(NS(=O)(=O)c2ccc3c4c(cccc24)C(=O)N3CC)n1,inhibition,[1],active: 23.4%
O=C(OCn1nnc2ccccc2c1=O)c1cc(-c2ccccc2Cl)nc2ccccc12,inhibition,[1],inactive: 12.3%
CCOc1ccc(OCc2ccc(C(=O)N(CC)CC)cc2)cc1,inhibition,[1],inconclusive: 24.1%
Nc1cccn2c(-c3ccc(Cl)c(Cl)c3)cnc12,inhibition,[1],inconclusive: 26.5%
O=C(NNS(=O)(=O)c1ccc(Cl)cc1)c1cnn(-c2ccccc2)c1-n1cccc1,inhibition,[1],inconclusive: 27.3%
C/C(=N/N1CCN(c2ccccn2)CC1)c1ccc([N+](=O)[O-])cc1,inhibition,[1],inactive: -1.3%
CN(C1CCCCC1)S(=O)(=O)c1ccccc1,inhibition,[1],inactive: -1.57%
COc1ccc(N/C(C)=C2/C(=O)C(=O)N(CCO)C2c2ccc([N+](=O)[O-])cc2)cc1 (stereo unspecified),inhibition,[1],active: 23.9%
O=C(c1ccc(Cl)c(S(=O)(=O)Nc2ccccc2C(=O)N2CCc3ccccc3C2)c1)N1CCc2ccccc2C1,inhibition,[1],inconclusive: 27.8%
CC(C)=CC(=O)NCCc1ccccc1,inhibition,[1],inactive: 0.11%
C/C(=N\Nc1ccc(Cl)c(C(=O)O)c1)c1cc2ccccc2o1,inhibition,[1],inconclusive: 25.9%
COc1ccccc1NC(=O)C1CCCN(S(=O)(=O)c2cccc3nsnc23)C1 (stereo unspecified),inhibition,[1],inconclusive: 23.8%
CCCCCC(=O)Cc1cc(O)cc2c1C(=O)Oc1cc(O)c(C(=O)O)c(CCCCC)c1O2,inhibition,[1],inconclusive: 27.9%
N#Cc1c(-c2cccs2)nc(SCc2ccc(Cl)cc2)[nH]c1=O,inhibition,[1],inconclusive: 27.4%
Cc1nc(N2CCOCC2)c2c(C)c(C(=O)Nc3ccc(F)cc3Cl)sc2n1,inhibition,[1],inconclusive: 23.3%
CC(C)(C)N/C=C(\C#N)S(=O)(=O)c1ccc(Br)cc1,inhibition,[1],inactive: -2.81%
COC(=O)c1cc2oc(C)cc2n1CC(=O)N(C)c1ccccc1,inhibition,[1],active: 24.4%
CN(C)c1ccc(/C=N\NC(=O)c2csnn2)cc1,inhibition,[1],inconclusive: 30.4%
CN(Cc1ccccc1)C1=CC(=[N+]2CCCCC2)CC(C)(C)C1,inhibition,[1],inconclusive: 24.7%
O=c1oc2ccccc2cc1-c1cn2cccnc2n1,inhibition,[1],inconclusive: 25.7%
CCOC(=O)c1c(C)n(OCc2ccccc2)c2ccc3nonc3c12,inhibition,[1],inconclusive: 0.08%
CC(C)CCOc1ccc(/C=C2\CCn3c2nc2cc(C(=O)O)ccc2c3=O)cc1,inhibition,[1],inconclusive: 26.4%

# 2 entries picked at random from the list so far, as already listed:
smiles,measurement,setting,value
CN(C1CCCCC1)S(=O)(=O)c1ccccc1,inhibition,[1],inactive: -1.57%
O=C(OCn1nnc2ccccc2c1=O)c1cc(-c2ccccc2Cl)nc2ccccc12,inhibition,[1],inactive: 12.3%
